The text below walks through data of PubChem BioAssay AID651803 (National Center for Advancing Translational Sciences (NCATS), 2012).

The chains behind the UniProt entries cited, without tags or fusion partners. Where a name states a change or a piece, a line headed by the entry shows the natural chain unless it says otherwise.
UniProt P11308: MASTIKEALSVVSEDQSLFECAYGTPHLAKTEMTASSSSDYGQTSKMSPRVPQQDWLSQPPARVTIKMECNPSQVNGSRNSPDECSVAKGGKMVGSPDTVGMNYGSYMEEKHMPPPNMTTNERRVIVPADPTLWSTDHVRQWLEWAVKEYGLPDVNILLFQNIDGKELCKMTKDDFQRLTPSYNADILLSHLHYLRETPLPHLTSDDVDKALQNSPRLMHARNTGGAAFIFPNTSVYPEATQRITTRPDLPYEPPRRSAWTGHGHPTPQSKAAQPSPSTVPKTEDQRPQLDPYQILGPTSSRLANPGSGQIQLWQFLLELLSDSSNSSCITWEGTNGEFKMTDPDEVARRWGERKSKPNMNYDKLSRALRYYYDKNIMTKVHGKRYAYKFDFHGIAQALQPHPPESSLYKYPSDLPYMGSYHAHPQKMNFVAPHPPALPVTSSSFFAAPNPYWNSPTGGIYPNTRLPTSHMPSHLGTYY

The whole screen tested about 1,200 compounds, of which fewer than 10 were called active. Calls follow the shape of the dose curve; as a rule, active = well fitted curve in the direction sought with a large enough effect; inconclusive = small, poorly fitted or top-dose-only effect, or another doubt; inactive = no such curve, though single readings can be large or run the other way. The list shows a part of the results.

This assay concerns the target Transcriptional regulator ERG (Homo sapiens) (UniProt P11308). Briefly: qHTS for Small Molecule Inhibitors of the ERG Ets/DNA interaction: TR assay against cherry picks. Also: % of control where 0% means no effect. Conditions: ERG Ets domain-DNA fluorescence polarization, Texas red probe; at 154 µM (top of the series). In short, it runs like this:
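Polarization read sequentially for fluorescein (ex 480/em 535 nm) and Texas red (ex 555/em 632 nm) probes, 5 nM and 100 nM solutions, displaced from His-ERG Ets domain (1 uM solution), pH 7.5 Tris/KCl/EDTA/DTT buffer.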
For `O=C(NC1CCCCCC1)c1ccc(-n2cnnc2)cc1`, the activity change, negative = inhibition is inactive: 9.32%.
`COc1ccc(-c2noc(Cn3c(=O)c4ccccc4n(CC(=O)Nc4cccc(C(F)(F)F)c4)c3=O)n2)cc1`: the activity change, negative = inhibition is inactive: 12.9%.
Turning to `CC1CCCCC1NC(=O)/C(C#N)=C/c1ccc(OCC(N)=O)cc1` (stereo unspecified), the activity change, negative = inhibition is inactive: -12.7%.
The value for `C=CCn1c(=O)[nH]c2cc(C(=O)N3CC=C(c4ccccc4)CC3)ccc2c1=O` was inactive: 0.0273%.
The value for `Cc1cccn2c(=O)cc(COc3ccc(NC(=O)C(C)C)cc3)nc12` was inactive: -1.94%; that for `Oc1ccc(Nc2ccc3ccccc3c2)cc1` was inactive: -16%.
The value for `Nc1ccc2nc(SCC(=O)N3CCOCC3)sc2c1` was inactive: 0.349%; that for `COc1ccccc1NS(=O)(=O)c1ccc(C)c(NC(=O)c2c(C)noc2C)c1` was inactive: 4.15%.
For `Cc1cc(OCc2nnc(SC(C)C(=O)O)n2-c2ccccc2)ccc1Cl` (stereo unspecified), the activity change, negative = inhibition is inactive: 3.34%.
The value for `COC(=O)c1c(C(=O)OC)c(-c2ccc(C(C)(C)C)cc2)n2c1CS(=O)C2` (stereo unspecified) was inactive: 4.8%; that for `COc1ccc(OCC(=O)OCc2cc(=O)n3nc(-c4cccs4)sc3n2)cc1` was inactive: 9.8%; that for `Cc1ccc2c(C)c(C(=O)N(C)C(C)c3ccon3)oc2c1C` (stereo unspecified) was inactive: -1.25%.
The same measure for `Cc1ccc(NC(=O)COC(=O)/C=C/c2c(C)nn(-c3ccc(F)cc3)c2Cl)cc1F`: inactive: -1.54%; for `CCN(CC)C(=O)Cn1cc(C(=O)C(=O)NCCCN2CCOCC2)c2ccccc21`: inactive: 2.97%; for `CN(C)C(CNC(=O)Cc1ccc([N+](=O)[O-])cc1)c1ccccc1` (stereo unspecified): inactive: -18.3%.
The same measure for `COc1ccc(C(=O)N[C@H](C(=O)N2CCN(c3ccccc3F)CC2)C(C)C)cc1`: inactive: 2.79%.
For `Cc1cccc(C)c1-n1cccc1/C=C1/C(=N)N2C(=NC1=O)SN=C2S(C)(=O)=O`, the activity change, negative = inhibition was inactive: -2.47%.
The value for `O=C(/C=C/c1ccc([N+](=O)[O-])cc1)NCc1ccco1` was inactive: 2.4%; that for `COc1ccc(-c2nc3c(c4nnc(SC(C)C(=O)Nc5ccc(C)cc5)n24)COC(C)(C)C3)cc1` (stereo unspecified) was inactive: 5.43%; that for `O=C(Nc1ncc([N+](=O)[O-])s1)c1cccs1` was inactive: -16.8%.
`COc1ccc(C(=O)NCc2ccc(OCCN(C)C)cc2)cc1OC`: the activity change, negative = inhibition was inactive: -1.94%.
With `Cc1ccc2nc3c(c(N)c2c1)CCN3C`, the activity change, negative = inhibition is inactive: -19.9%.
Regarding `COc1ccc(NC(C)c2ccccc2)cc1` (stereo unspecified), the activity change, negative = inhibition was inactive: 6.03%.
The value for `CS(=O)(=O)N(Cc1ccccc1)c1ccc(C(=O)Nc2ccc(Cl)cc2)cc1` was inactive: 0.576%; that for `CCCCn1c(N)c(N(CC(C)C)C(=O)c2ccc(S(=O)(=O)N(CC)c3ccccc3)cc2)c(=O)[nH]c1=O` was inactive: 2.48%; that for `COc1cc(C2Nc3ccccc3NC3=C2C(=O)CC(c2ccc(OC)c(OC)c2)C3)ccc1O` (stereo unspecified) was inactive: -9.45%.
The value for `CCOC(=O)N1CCC(NC(=O)CSCc2nc(-c3ccc(OCC)cc3)oc2C)CC1` was inactive: -9.6%; that for `COc1ccc(C(=O)c2c[nH]c(C(=O)N=CN(C)C)c2)cc1` was inactive: 0.29%; that for `O=C(NCc1ccc2c(c1)OCO2)NC1CCCCC1` was inactive: 19.9%.
Take `CCCCN(CC)C(=O)CSc1nc2n[nH]c(C)c2c(=N)n1-c1cccc(C)c1`: the activity change, negative = inhibition is inactive: -3.72%.
The same measure for `COc1ccc(OCC(=O)NNC(=O)C2CCN(c3ncnc4sc(C)c(C)c34)CC2)cc1`: inactive: 0.13%; for `Oc1ccccc1/C=N/n1c(COc2ccccc2)n[nH]c1=S`: inactive: -17.3%.
For the compound `Cc1ccc(S(=O)(=O)N2CCCCC2)cc1NC(=O)C1CC(=O)N(c2ccc3c(c2)OCCO3)C1` (stereo unspecified), the activity change, negative = inhibition was inactive: 6.08%.
The same measure for `CCOc1cc(C2c3c(oc4ccccc4c3=O)C(=O)N2Cc2ccc(OC)cc2)ccc1O` (stereo unspecified): inactive: -8.68%; for `O=[N+]([O-])c1cnc(N2CCCCC2)c([N+](=O)[O-])c1`: inactive: 11.5%.
The same measure for `COc1ccc(C(C)(C)C)cc1NC(=O)C1=CC=CN2CCS(=O)(=O)N=C12`: inactive: 1.14%; for `O=C(Nc1ccc(N2CCN(C(=O)c3cccs3)CC2)cc1)c1ccccc1Cl`: inactive: -10%.
As to `COc1cc(NCCCC(C)N)c2ncccc2c1` (stereo unspecified), the activity change, negative = inhibition is inactive: 58.2%.
The value for `CC1(C)OC(C)(C)/C(=C/Nc2ccc(O)cc2)C1=O` was inactive: 2.72%; that for `CC1=CC(C)(C)N2C(=O)C(=Nc3ccc(O)cc3)c3cccc1c32` was inactive: -7.78%; that for `CCC1COC(c2cccn2Cc2ccc(Cl)cc2)=N1` (stereo unspecified) was inactive: 0.438%.
The value for `O=S(=O)(NCCC1=CCCCC1)c1ccc(OC(F)(F)F)cc1` was inactive: -22.2%.
The value for `CCOC(=O)c1c(NC(=O)C(C)Sc2cn(CCNC(=O)c3ccc(OC)c(OC)c3)c3ccccc23)sc2c1CCC2` (stereo unspecified) was inactive: -9.91%; that for `Cc1cccn2c(=O)c3cc(C#N)c(=NC(=O)c4ccccc4)n(Cc4ccco4)c3nc12` was inactive: 2.24%; that for `O=C(Nc1ccc(-c2nc3ccccc3[nH]2)cc1)c1c(F)c(F)c(F)c(F)c1F` was inactive: 6.61%.
Take `COc1ccc(NC(=O)C(C)(C)Oc2ccc(Cl)cc2)cn1`: the activity change, negative = inhibition was inactive: -10.7%.
The same measure for `COc1ccc(CCNc2oc(-c3cccc4ccccc34)nc2P(=O)(OC)OC)cc1OC`: inactive: -5.96%.
The same measure for `CCC(=O)N1CCN(c2nc3ccc(Br)cc3s2)CC1`: inactive: 2.3%; for `O=C(CN1C(=O)COc2ccc(S(=O)(=O)N3CCCCCC3)cc21)N1CCN(c2ccccc2F)CC1`: inactive: -18.9%; for `C#C[C@]1(O)CCC2C3CCC4=CC(=O)CC[C@@H]4C3CC[C@@]21C` (stereo partly specified): inactive: 1.42%.
Turning to `COc1cc(/C=N/NC(=O)C(=O)NCc2ccco2)cc(Br)c1O`, the activity change, negative = inhibition is inactive: 2.43%.
The same measure for `C=CCOc1ccc(/C=N/NC(C)=O)cc1OCC`: inactive: -3.61%; for `O=C(NC1CCCC1)C1CCC(CNS(=O)(=O)c2cccs2)CC1` (stereo unspecified): inactive: 2.82%.
Take `C/C(=N/OCO/N=C(\C)c1ccccc1)c1ccccc1`: the activity change, negative = inhibition was inactive: -14%.
With `O=C(Nc1cc2c(cc1Cl)-c1ccc([N+](=O)[O-])cc1C2=NO)C(F)(F)F`, the activity change, negative = inhibition is inactive: -27.9%.
In the case of `O=C(OCC(=O)c1ccc(Cl)cc1Cl)c1cnccn1`, the activity change, negative = inhibition is inactive: 0.718%.
The same measure for `O=C(Nc1ccc(C(=O)O)cc1)/C(=C\c1cccc([N+](=O)[O-])c1)NC(=O)c1ccc(Br)o1`: inactive: -9.45%; for `CCc1cc(C(=O)NNC(=S)Nc2cccc(C)c2)cs1`: inactive: 3.53%.
The same measure for `COc1ccccc1NC(=O)N1CCN(C(=O)Nc2ccccc2OC)CC1`: inactive: -19.1%.
The value for `CC(=O)Nc1ccc(/C(C)=N/NC(=O)c2ccccc2Cl)cc1` was inactive: 2.9%.
Turning to `Cc1c(OCC(=O)NCC2CCC(C(=O)NCCCO)CC2)ccc2c(-c3ccccc3)cc(=O)oc12` (stereo unspecified), the activity change, negative = inhibition is inactive: 7.74%.
The same measure for `OC(c1cc(C(F)(F)F)nc2c(Cl)cc(Cl)cc12)C1CCCCN1` (stereo unspecified): inactive: -17.6%; for `CCc1ccc(S(=O)(=O)NC2CC(C)(C)NC(C)(C)C2)cc1`: inactive: -5.64%; for `COC(=O)Cn1c(=NC(=O)CN2C(=O)CCC2=O)sc2cc(S(N)(=O)=O)ccc21`: inactive: 3.73%.
The same measure for `COc1cc(/C=N/NC(=O)CC2(C)OCCO2)cc(Br)c1O`: inactive: -0.591%; for `COCC1CCN(Cc2nc(-c3ccc4c(c3)OCO4)no2)C1` (stereo unspecified): inactive: 14.2%; for `Cc1ccc2c(c1)N(CCC(=O)NCCCN1CCCC1)C(=O)CO2`: inactive: -7.25%.
The same measure for `CC1CC(=O)N(CC(=O)Nc2cccc(Cl)c2)c2ccccc2S1(=O)=O` (stereo unspecified): inactive: -6.57%; for `C=C(C)[C@@H]1CC=C(C(=O)O)CC1`: inactive: -15.8%; for `Cc1ccc(Cl)cc1NC(=O)c1oc2ccc(S(=O)(=O)N(C)C3CCCCC3)cc2c1C`: inactive: -6.65%.
Take `Cc1ccc(OCC(=O)OCC(=O)c2ccccc2)cc1C`: the activity change, negative = inhibition was inactive: 4.59%.
The value for `O=C(Nc1ccncc1)c1cn(-c2ccccc2)nc1-c1cccs1` was inactive: -21%; that for `COc1ccc(NC(=O)CSc2nc(C)c3c(c2C#N)CCCC3)cc1` was inactive: 4.28%; that for `CCCC(c1nnnn1CS(=O)(=O)c1ccc(C)cc1)N1CCN(CC)CC1` (stereo unspecified) was inactive: -14.2%.
The same measure for `CCOC(=O)C(c1ccccc1)C(Nc1ccc(F)cc1)c1ccccn1` (stereo unspecified): inactive: -19.2%.
The value for `Cc1ccc(NC(=O)/C(C#N)=C/c2ccc(C)s2)c(C)c1` was inactive: 90%.
